For at least one compound, name, drawing or mass did not settle the structure.
Tested on: M. tb H37Rv
Format: cell-based, Mycobacterium tuberculosis

Row | SMILES | MIC [ng/mL]
1 | CC1(C)CCC(NC(=O)c2cc3c(Cl)cc(Cl)cc3[nH]2)CC1 [NITD-304] | 5 to 40
2 | CC1(C)CCC(NC(=O)c2cc3c(F)cc(F)cc3[nH]2)CC1 [NITD-349] | 5 to 40
